The target of this test is yes-associated protein 1 (human (endogenous in BT-474-OR and SNU-251-OR)) (UniProt P46937). Description: co-IP; 1000 ug total lysate of BT-474-OR or SNU-251-OR cells in NETN buffer (250 mM NaCl, 5 mM Tris-HCl, 5 mM EDTA, 0.5% NP-40), precipitated with anti-YAP or anti-SOX5 antibody (1:50) overnight with Protein A/G beads; normal rabbit IgG as negative control; Western blot. In general terms: In western blotting, separated proteins are transferred to a membrane and probed.

Amino acid sequences for entries named in this document (tags omitted).
UniProt P46937: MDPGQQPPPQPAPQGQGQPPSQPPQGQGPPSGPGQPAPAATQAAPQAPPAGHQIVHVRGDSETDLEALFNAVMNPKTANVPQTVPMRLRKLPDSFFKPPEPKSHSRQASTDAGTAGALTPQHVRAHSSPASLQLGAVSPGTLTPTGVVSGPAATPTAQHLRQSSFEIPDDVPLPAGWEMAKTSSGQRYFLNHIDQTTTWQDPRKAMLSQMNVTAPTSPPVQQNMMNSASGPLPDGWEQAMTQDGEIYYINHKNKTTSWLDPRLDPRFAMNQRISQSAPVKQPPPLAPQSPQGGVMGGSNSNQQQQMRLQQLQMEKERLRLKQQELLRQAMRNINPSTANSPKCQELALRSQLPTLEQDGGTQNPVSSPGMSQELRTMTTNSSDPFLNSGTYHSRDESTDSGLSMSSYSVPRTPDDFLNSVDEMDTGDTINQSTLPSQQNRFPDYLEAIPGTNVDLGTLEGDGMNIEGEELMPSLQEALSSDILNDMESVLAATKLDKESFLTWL
UniProt P35711: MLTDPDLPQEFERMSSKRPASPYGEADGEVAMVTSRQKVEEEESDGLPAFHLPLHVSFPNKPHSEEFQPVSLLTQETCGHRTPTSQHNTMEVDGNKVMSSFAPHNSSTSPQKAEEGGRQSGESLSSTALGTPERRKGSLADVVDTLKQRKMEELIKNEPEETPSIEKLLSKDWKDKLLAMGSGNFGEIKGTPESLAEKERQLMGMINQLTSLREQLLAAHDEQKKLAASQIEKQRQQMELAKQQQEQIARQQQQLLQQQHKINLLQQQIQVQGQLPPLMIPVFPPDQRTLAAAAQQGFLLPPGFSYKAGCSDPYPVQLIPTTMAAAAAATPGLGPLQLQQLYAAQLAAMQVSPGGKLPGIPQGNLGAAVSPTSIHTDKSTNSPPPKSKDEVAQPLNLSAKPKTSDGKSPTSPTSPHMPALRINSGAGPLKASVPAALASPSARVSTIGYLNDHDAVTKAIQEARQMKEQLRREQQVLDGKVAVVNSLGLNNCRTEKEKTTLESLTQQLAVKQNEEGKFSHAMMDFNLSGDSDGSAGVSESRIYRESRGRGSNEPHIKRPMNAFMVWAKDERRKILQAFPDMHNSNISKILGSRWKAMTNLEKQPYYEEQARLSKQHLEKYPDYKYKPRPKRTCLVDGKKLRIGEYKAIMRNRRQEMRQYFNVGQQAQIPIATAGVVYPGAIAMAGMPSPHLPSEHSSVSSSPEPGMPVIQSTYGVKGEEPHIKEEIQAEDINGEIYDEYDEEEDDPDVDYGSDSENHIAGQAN

These are yes or no findings as the source states them, for the method shown. Binding seen in cells or lysates may run through a third protein. Some results given as binding are weak or reduced against the parent protein; the word gives no strength.

For “SRY-box transcription factor 5 (from UniProt P35711 1-763)”, the binding entry is given as “binds”.

The record behind these values is article PMC12022250.
